Test results reported in US20240277670A1, “SAFE USE OF MMP-12 INHIBITOR” (Foresee Pharmaceuticals Co., Ltd., priority 2021, published 2024).
The name of at least one read-out is uncertain.

Test: Food effect (FE) part, plasma pharmacokinetics
Type: in vivo, human
Conditions: 200 mg single dose with or without food
Procedure: In this part, eight subjects received 200 mg ASD-in-Capsule orally as a single dose in a randomized way, once under fasting conditions and once after the intake of a high fat breakfast, with a wash-out period of one week between successive dosing (FIG. 4).
Blood samples were collected post-dosing on Day 1 (at 0.5, 1, 2, 3, 4, 6, 8, 12, and 16 hours) and Day 8 (at 0.5, 1, 2, 3, 4, 6, 8, 10, 12, 16, 20, 24, 30, 36, and 48 hours) as well as immediately pre-morning dose on Days 2-7 and 2 hours post-morning dose on Days 4 and 6. Within 15 minutes of collection, blood samples were centrifuged at 2000 rpm for 10 minutes at 4° C., and, subsequently, the plasma was aliquoted, frozen, and stored at −70° C. pending PK analyses.
The samples were subjected to liquid chromatography followed by analyses by tandem mass spectrometry. The lower limit of quantification for the compound of formula (I) was 5 ng/mL.
The plasma PK parameters were derived by non-compartmental analyses using Phoenix® WinNonlin® version 6.3 or higher (Pharsight Corporation Inc., Mountain View, CA, USA). PK variables were summarized using arithmetic mean, standard deviation, median, minimum, maximum, the percent coefficient of variation, geometric mean, and a two-sided 95% confidence limit of the arithmetic mean and the geometric mean. […]

Cc1cccc(COc2ccc(Sc3ccoc3C3NC(=O)NC3=O)cc2)c1 (stereo not shown) [compound of formula (I)]
Effect of food on overall exposure (AUC): no effect on overall exposure
